Measured values published in PubChem BioAssay AID1347076 (National Center for Advancing Translational Sciences (NCATS), 2019).
About 13,000 (3.2%) of roughly 400,000 compounds were called active. Inconclusive means that the source gave no clear call. Such entries were picked first, then a sample of the others. Calls follow the shape of the dose curve; as a rule, active = well fitted cell-killing curve with a large enough effect; inconclusive = small, poorly fitted or top-dose-only effect, or effect the other way; inactive = flat fitted curve, though single readings scatter. Potencies beside an inconclusive call are fits to weak or partial responses and may not hold up.

Assay: qHTS assay for MDR1-selective chemotherapeutics: Primary screen using the drug-selected MDR subline cells KB-V1; also: nearly all actives have a fitted effect of over 60% in size
Conditions: KB-V1 MDR cells viability, CellTiter-Glo, 72 h; activity change, negative = cytotoxicity: at 46.1 µM (top of the series)
Procedure, shortened: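 Cytotoxicity via CellTiter-Glo luminescence after 72 h compound exposure at 37 degrees C. Cells: drug-selected KB-V1 line, DMEM phenol-red free plus 10% FBS. Compounds tested at multiple concentrations; normalized data fitted to concentration-effect curves.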
% is scaled to controls: 0 for no effect and ±100 for the full control effect; potency is read from the fitted curve at half-maximal effect.

Q: With `CC(=O)c1ccc(OCCCC(=O)Nc2cccc(S(=O)(=O)N(C)C)c2)cc1` as the compound, how does the Potency read?
A: The Potency was active: 13 µM.

Q: Which Potency does the source give for `COC(=O)[C@@]12C[C@@H](CC(=O)NCCc3ccccc3OC)C(=O)N(Cc3ccccc3)C1=CCC(C)(C)C2` here?
A: Its Potency is active: 11.6 µM.

Q: With `Cc1cc(CN(C)C(=O)c2ccc3nc(Cc4ccccc4F)oc3c2)on1` as the compound, how does the Potency read?
A: The Potency was inconclusive: 32.6 µM [cytotoxic, single point].

Q: For `COc1ccc(OC)c(S(=O)(=O)NC2CC(=O)N(c3ccc(C)c(C)c3)C2)c1` (centres undefined), which “activity change, negative = cytotoxicity” value is on record?
A: Its value is inactive: -16.9%.

Q: With `CCN(CC)C(=O)c1ccc(-c2nnc(Nc3ccc(C(=O)NC)cc3)c3ccccc23)cc1` as the compound, how does the “activity change, negative = cytotoxicity” value read?
A: The value was inactive: 13.5%.

Q: With `N#Cc1c(-c2ccccc2)c(-c2ccccc2)nn(CC(=O)NNC(=O)Nc2ccc(Cl)c(Cl)c2)c1=O` as the compound, how does the “activity change, negative = cytotoxicity” value read?
A: Its value is inactive: 7.87%.

Q: Which Potency does the source give for `CN(/N=C/c1cc([N+](=O)[O-])ccc1O)c1ccccc1` here?
A: The Potency was inconclusive: 6.51 µM [cytotoxic, partial curve].

Q: For `COC(=O)c1ccc(NC(=O)C23CC4CC(C2)CC(n2cncn2)(C4)C3)cc1`, which “activity change, negative = cytotoxicity” value is on record?
A: Its value is inactive: -17.1%.

Q: Which Potency does the source give for `Cc1nc2ccccc2n1Cc1ccc(Br)cc1` here?
A: Its Potency is inconclusive: 0.651 µM [cytotoxic, full curve].

Q: For `Cc1cc(OC(C)C(=O)NCCc2c[nH]c3ccccc23)c2c(C)cc(=O)oc2c1` (centres undefined), which Potency is on record?
A: The Potency was inconclusive: 20.6 µM [cytotoxic, partial curve, poor fit].

Q: With `O=C(Cc1ccccc1)N(Cc1cccnc1)c1nc2c(F)cc(F)cc2s1` as the compound, how does the Potency read?
A: The Potency was inconclusive: 10.3 µM [cytotoxic, partial curve, poor fit].

Q: Which “activity change, negative = cytotoxicity” value does the source give for `Cc1cccc(OC(=O)CSc2nnc(CNC(=O)c3ccccc3)o2)c1C` here?
A: The value was inactive: -1.67%.

Q: Which “activity change, negative = cytotoxicity” value does the source give for `CSc1nnc2c(n1)OC(c1cccn1C)N(C(C)=O)c1ccccc1-2` (centres undefined) here?
A: Its value is inactive: -15%.

Q: Which “activity change, negative = cytotoxicity” value does the source give for `O=C(Nc1cccc(S(=O)(=O)N2CCCC2)c1)c1ccc2ccccc2n1` here?
A: The value was inactive: -9.07%.

Q: With `Cc1cc([N+](=O)[O-])c(NCCCCCCO)c([N+](=O)[O-])c1` as the compound, how does the Potency read?
A: Its Potency is inconclusive: 25.9 µM [cytotoxic, single point].

Q: For `CN(C)C(=O)N1CCC(C(=O)N2CCCC(C(=O)c3cccc4ccccc34)C2)CC1` (centres undefined), which Potency is on record?
A: The Potency was inconclusive: 9.2 µM [cytotoxic, partial curve].

Q: With `O=C(/C=C/c1ccc(Cl)cc1)N(Cc1ccccc1)C1CCS(=O)(=O)C1` (centres undefined) as the compound, how does the Potency read?
A: The Potency was inconclusive: 23.1 µM [cytotoxic, single point].

Q: With `CC(C)c1ccc(OCC(=O)NC(Cc2c[nH]c3ccccc23)C(=O)O)cc1` (centres undefined) as the compound, how does the Potency read?
A: The Potency was inconclusive: 13 µM [cytotoxic, partial curve, poor fit].

Q: With `CCCCNc1c(CC(C)C)nc2nc(C)cc(C)n12` as the compound, how does the Potency read?
A: Its Potency is inconclusive: 18.4 µM [cytotoxic, partial curve].
